PubChem BioAssay AID1259254 | NCATS | 2017

Screen: 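Finding genes that stop cells copying their DNA twice in one cycle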 (primary screen)
Cell system: human HCT116 colorectal cancer cells
Reagents: single siRNA against human genes
Timing: 3 days
Measurement: 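Imaged Hoechst DNA stain sorts each cell into a cycle phase by DNA amount; per plate, G2 fraction set to 0% for non-targeting and 100% for GMNN siRNA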
Direction: G2 robust z-score: higher = more G2 cells, more excess DNA replication
Active means: 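An siRNA counts as active if its G2 robust z-score lies at least 5 MADs above the screen median; here such calls match roughly 38% of GMNN control or more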
This is an unselected part of about 59,000 reagents tested. Over the whole deposit, about 1,550 (2.6%) are marked active. 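G2 share is only a proxy for re-replication; each gene was hit by three separate siRNAs, and active genes were retested.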 Further read-outs or replicates are left out here. Reagent sequences are not shown. Not given: the amount of reagent.

With knock-down of MAPK8IP3 [SID160735590], the screen gave G2 robust z-score -0.963; inactive.
Against MAPK8IP3 [SID160735591], the entry reads G2 robust z-score -0.0763; inactive.
After knock-down of MAPK8IP3 [SID160735592], the record shows G2 robust z-score -0.882; inactive.
Against SUPT7L [SID160723423] the deposit lists G2 robust z-score 0.959; inactive.
Depletion of SUPT7L [SID160723424] gave: G2 robust z-score 1.01; inactive.
Knock-down of SUPT7L [SID160723425] resulted in: G2 robust z-score -0.514; inactive.
Depletion of AZIN1 [SID160741038] gave: G2 robust z-score 1.41; inactive.
Depletion of AZIN1 [SID160741040] resulted in: G2 robust z-score 1.6; inactive.
For AZIN1 [SID160741041] the deposit lists G2 robust z-score -0.791; inactive.
With knock-down of C1orf226 [SID160767043], the screen gave G2 robust z-score 0.284; inactive.
Against C1orf226 [SID160767044], the values are G2 robust z-score 0.185; inactive.
C1orf226 [SID160767045] showed G2 robust z-score 5.85; active.
For DNASE1L1 [SID160730715], the values are G2 robust z-score -0.652; inactive.
DNASE1L1 [SID160755280] scored G2 robust z-score 0.393; inactive.
Knock-down of DNASE1L1 [SID160755291] came out at: G2 robust z-score -0.0215; inactive.

Entries above whose target name starts with S or s (3):
SUPT7L [SID160723423]: G2 robust z-score = 0.959; Call = inactive
SUPT7L [SID160723424]: G2 robust z-score = 1.01; Call = inactive
SUPT7L [SID160723425]: G2 robust z-score = -0.514; Call = inactive

Continued:
For TLX1NB [SID160774558], the entry reads G2 robust z-score -1.06; inactive.
With knock-down of TLX1NB [SID160774559], the record shows G2 robust z-score 3.68; inactive.
Knock-down of TLX1NB [SID160774560] resulted in: G2 robust z-score 1.59; inactive.
Silencing of CATIP [SID160765406] gave: G2 robust z-score -0.412; inactive.
Silencing of CATIP [SID160765407] resulted in: G2 robust z-score 0.702; inactive.
With knock-down of CATIP [SID160765408] the results were G2 robust z-score -0.613; inactive.
With knock-down of SPATS2 [SID160748296] the results were G2 robust z-score -0.287; inactive.
Against SPATS2 [SID160748297], the values are G2 robust z-score -1.36; inactive.
After knock-down of SPATS2 [SID160748298] the results were G2 robust z-score 0.00173; inactive.
